From PMC5838220

Protein sequences, listed by entry. Tags and fused reporters are not part of them. Lines headed by an entry give the natural chain unless they say otherwise; changes in a name come on top.
UniProt Q8IVH8: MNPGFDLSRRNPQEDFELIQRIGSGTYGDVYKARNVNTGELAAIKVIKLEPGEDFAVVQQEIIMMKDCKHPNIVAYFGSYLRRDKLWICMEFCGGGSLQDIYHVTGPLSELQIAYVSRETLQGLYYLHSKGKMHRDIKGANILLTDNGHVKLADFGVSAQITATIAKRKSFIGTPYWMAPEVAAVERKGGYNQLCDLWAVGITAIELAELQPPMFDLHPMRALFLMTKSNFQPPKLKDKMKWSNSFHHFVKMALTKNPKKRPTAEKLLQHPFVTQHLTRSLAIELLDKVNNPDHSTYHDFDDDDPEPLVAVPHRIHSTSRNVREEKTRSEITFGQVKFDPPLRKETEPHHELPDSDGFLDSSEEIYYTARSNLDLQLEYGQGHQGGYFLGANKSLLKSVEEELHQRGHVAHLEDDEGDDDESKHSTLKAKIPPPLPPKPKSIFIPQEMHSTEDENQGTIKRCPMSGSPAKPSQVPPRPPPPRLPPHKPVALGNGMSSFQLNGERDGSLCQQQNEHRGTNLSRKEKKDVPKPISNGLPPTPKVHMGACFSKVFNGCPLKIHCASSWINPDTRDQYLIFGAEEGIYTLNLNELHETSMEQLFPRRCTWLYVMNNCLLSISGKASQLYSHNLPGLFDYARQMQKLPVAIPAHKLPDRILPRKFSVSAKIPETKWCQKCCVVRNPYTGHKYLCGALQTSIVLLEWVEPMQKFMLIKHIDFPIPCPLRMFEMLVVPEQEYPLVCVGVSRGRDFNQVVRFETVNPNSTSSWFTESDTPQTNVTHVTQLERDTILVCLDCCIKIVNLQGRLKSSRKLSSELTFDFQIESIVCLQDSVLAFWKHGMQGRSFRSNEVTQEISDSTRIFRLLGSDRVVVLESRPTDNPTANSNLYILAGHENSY

Tests used:
[1] = molecular target: endogenous TFEB (human (endogenous in HEK293A)) (UniProt P19484); experiment: co-IP; HEK293A cells transfected with FLAG-tagged WT-MAP4K3, KD-MAP4K3 or HDAC6; endogenous TFEB immunoprecipitated and blotted for MAP4K3 (text; the legend says FLAG immunoprecipitates)
[2] = molecular target: T1, recombinant GST-TFEB amino acids 1-37 (UniProt P19484); experiment: pull-down; FLAG immunoprecipitates from transfected HEK293A incubated with recombinant GST-TFEB aa 1-37 or GST alone, then mixed with beads; eluate of GST-bound fractions blotted with anti-FLAG and anti-GST; both purified
T1 sequence: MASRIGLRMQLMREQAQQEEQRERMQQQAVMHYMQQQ

[3] = molecular target: recombinant TFEB generated by in vitro transcription and translation (UniProt P19484); experiment: pull-down; FLAG immunoprecipitates (purified FLAG-tagged proteins from transfected HEK293A) incubated with in vitro transcribed and translated TFEB; pulled down with an anti-TFEB antibody, immunoblotted; only the binder purified

binding [1]: binds
binding [2]: binds
binding [3]: binds
Substance: kinase dead (KD)-MAP4K3-FLAG (from UniProt Q8IVH8) (enzyme)

These are yes or no findings as the source states them, for the method shown. A result given as binding can be weak or reduced; the word gives no strength. For part of these data: Sequences can lack the tags named with a protein. For part of these data: Binding seen in cells or lysates may run through a third protein.
